PubChem BioAssay AID1259254, NCATS – 2017

Purpose: 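Genome-wide screen for genes that prevent DNA re-replication in cancer cells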 (primary screen)
Cells: human HCT116 colorectal cancer cells
Reagent: single siRNA against human genes
Duration: 3 days
Detection: 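Imaged Hoechst DNA stain sorts each cell into a cycle phase by DNA amount; per plate, G2 fraction set to 0% for non-targeting and 100% for GMNN siRNA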
Direction: G2 robust z-score and G2 cells, % of GMNN control: higher = more G2 cells, more excess DNA replication
Rule for the call: 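An siRNA counts as active if its G2 robust z-score lies at least 5 MADs above the screen median; here such calls match roughly 38% of GMNN control or more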
Shown is a random part of about 59,000 deposited reagents. Of all reagents, about 1,550 (2.6%) are marked active. 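G2 share is only a proxy for re-replication; each gene was hit by three separate siRNAs, and active genes were retested.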 Unmarked entries are inactive. Reagents against one gene are numbered here. Further read-outs or replicates are left out here. Not given: the amount of reagent.

ZBTB39 (zinc finger and BTB domain containing 39) #1
- G2 robust z-score: -0.867
- G2 cells, % of GMNN control: -3.13

ZBTB39 (zinc finger and BTB domain containing 39) #2
- G2 robust z-score: -1.31
- G2 cells, % of GMNN control: -6.22

ZBTB39 (zinc finger and BTB domain containing 39) #3
- G2 robust z-score: -1
- G2 cells, % of GMNN control: -4.1

CCSER1 (coiled-coil serine rich protein 1) #1
- G2 robust z-score: 0.511
- G2 cells, % of GMNN control: 6.56

CCSER1 (coiled-coil serine rich protein 1) #2
- G2 robust z-score: -0.32
- G2 cells, % of GMNN control: 0.717

CCSER1 (coiled-coil serine rich protein 1) #3
- G2 robust z-score: 0.314
- G2 cells, % of GMNN control: 5.18

PIGB (phosphatidylinositol glycan anchor biosynthesis class B) #1
- G2 robust z-score: -0.992
- G2 cells, % of GMNN control: -4.01

PIGB (phosphatidylinositol glycan anchor biosynthesis class B) #2
- G2 robust z-score: 0.147
- G2 cells, % of GMNN control: 4

PIGB (phosphatidylinositol glycan anchor biosynthesis class B) #3
- G2 robust z-score: -0.0644
- G2 cells, % of GMNN control: 2.51

LYVE1 (lymphatic vessel endothelial hyaluronan receptor 1) #1
- G2 robust z-score: 7.22 (active)
- G2 cells, % of GMNN control: 53.8

LYVE1 (lymphatic vessel endothelial hyaluronan receptor 1) #2
- G2 robust z-score: -1.21
- G2 cells, % of GMNN control: -5.55

LYVE1 (lymphatic vessel endothelial hyaluronan receptor 1) #3
- G2 robust z-score: -0.44
- G2 cells, % of GMNN control: -0.129

COLEC10 (collectin subfamily member 10) #1
- G2 robust z-score: -1.29
- G2 cells, % of GMNN control: -6.07

COLEC10 (collectin subfamily member 10) #2
- G2 robust z-score: 2.46
- G2 cells, % of GMNN control: 20.3

COLEC10 (collectin subfamily member 10) #3
- G2 robust z-score: 2.33
- G2 cells, % of GMNN control: 19.4

KMT2B (lysine methyltransferase 2B) #1
- G2 robust z-score: 0.277
- G2 cells, % of GMNN control: 4.91

KMT2B (lysine methyltransferase 2B) #2
- G2 robust z-score: -0.443
- G2 cells, % of GMNN control: -0.15

KMT2B (lysine methyltransferase 2B) #3
- G2 robust z-score: 1.46
- G2 cells, % of GMNN control: 13.2

THNSL1 (threonine synthase like 1) #1
- G2 robust z-score: -0.618
- G2 cells, % of GMNN control: -1.38

THNSL1 (threonine synthase like 1) #2
- G2 robust z-score: -1.18
- G2 cells, % of GMNN control: -5.32

THNSL1 (threonine synthase like 1) #3
- G2 robust z-score: -0.531
- G2 cells, % of GMNN control: -0.771

SGO1 (shugoshin 1) #1
- G2 robust z-score: 5.9 (active)
- G2 cells, % of GMNN control: 44.4

SGO1 (shugoshin 1) #2
- G2 robust z-score: 2.61
- G2 cells, % of GMNN control: 21.3

SGO1 (shugoshin 1) #3
- G2 robust z-score: 8.2 (active)
- G2 cells, % of GMNN control: 60.6

Ordered by “G2 cells, % of GMNN control” (lowest first): 2 of the entries above
KMT2B (lysine methyltransferase 2B) #1
- G2 robust z-score: 0.277
- G2 cells, % of GMNN control: 4.91

COLEC10 (collectin subfamily member 10) #3
- G2 robust z-score: 2.33
- G2 cells, % of GMNN control: 19.4
